Experimental data from the supplement of paper PMC10849652.
The other results are listed elsewhere or left out.

Protein sequences, listed by entry. Tags and fused reporters are not part of them. Lines headed by an entry give the natural chain unless they say otherwise; changes in a name come on top.
UniProt Q9UBF6, whole entry, looked up: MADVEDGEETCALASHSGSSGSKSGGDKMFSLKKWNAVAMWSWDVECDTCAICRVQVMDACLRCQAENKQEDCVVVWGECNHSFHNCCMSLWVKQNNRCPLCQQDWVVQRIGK
UniProt Q8TA86: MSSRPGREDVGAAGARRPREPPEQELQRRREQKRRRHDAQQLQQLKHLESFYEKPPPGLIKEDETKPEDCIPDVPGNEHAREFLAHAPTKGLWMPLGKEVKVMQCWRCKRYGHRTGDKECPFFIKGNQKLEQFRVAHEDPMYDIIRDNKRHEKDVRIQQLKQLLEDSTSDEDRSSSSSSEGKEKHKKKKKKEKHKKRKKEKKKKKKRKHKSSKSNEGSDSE
UniProt Q9P2E9: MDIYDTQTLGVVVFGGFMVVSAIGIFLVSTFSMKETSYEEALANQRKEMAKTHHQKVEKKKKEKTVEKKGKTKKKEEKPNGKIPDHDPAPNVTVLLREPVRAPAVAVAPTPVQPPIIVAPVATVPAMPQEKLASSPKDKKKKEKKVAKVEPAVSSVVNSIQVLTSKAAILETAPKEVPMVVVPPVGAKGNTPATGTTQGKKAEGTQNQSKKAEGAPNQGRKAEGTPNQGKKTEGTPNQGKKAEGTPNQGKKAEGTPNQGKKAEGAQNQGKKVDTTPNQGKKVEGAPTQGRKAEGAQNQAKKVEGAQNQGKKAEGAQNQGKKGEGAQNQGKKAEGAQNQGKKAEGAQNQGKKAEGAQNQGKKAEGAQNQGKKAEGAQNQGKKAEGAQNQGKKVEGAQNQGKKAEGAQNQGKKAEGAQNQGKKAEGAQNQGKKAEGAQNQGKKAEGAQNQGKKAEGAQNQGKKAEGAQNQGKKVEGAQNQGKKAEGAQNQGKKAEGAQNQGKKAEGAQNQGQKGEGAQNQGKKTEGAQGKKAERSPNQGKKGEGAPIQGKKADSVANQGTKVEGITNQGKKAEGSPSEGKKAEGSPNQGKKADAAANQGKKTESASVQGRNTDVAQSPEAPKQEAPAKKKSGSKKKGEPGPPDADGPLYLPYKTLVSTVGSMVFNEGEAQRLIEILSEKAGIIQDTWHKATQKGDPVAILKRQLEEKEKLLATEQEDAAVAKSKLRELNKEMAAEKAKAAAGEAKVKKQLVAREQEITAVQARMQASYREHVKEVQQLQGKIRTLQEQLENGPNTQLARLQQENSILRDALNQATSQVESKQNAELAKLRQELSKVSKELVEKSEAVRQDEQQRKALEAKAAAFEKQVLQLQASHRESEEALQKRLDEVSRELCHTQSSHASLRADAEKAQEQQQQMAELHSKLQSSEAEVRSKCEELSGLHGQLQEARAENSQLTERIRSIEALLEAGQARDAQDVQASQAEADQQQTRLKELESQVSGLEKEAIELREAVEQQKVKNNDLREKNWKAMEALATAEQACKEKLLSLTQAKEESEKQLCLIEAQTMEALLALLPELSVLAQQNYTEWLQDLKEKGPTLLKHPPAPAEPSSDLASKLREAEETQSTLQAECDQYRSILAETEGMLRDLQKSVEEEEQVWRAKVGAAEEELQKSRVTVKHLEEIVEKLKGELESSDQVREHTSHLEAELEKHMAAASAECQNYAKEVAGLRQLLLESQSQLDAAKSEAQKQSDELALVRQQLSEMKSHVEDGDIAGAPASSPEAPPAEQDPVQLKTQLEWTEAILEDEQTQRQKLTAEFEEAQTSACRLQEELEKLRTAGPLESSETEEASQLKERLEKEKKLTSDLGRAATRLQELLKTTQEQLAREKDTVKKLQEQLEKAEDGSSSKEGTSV
UniProt Q96S38: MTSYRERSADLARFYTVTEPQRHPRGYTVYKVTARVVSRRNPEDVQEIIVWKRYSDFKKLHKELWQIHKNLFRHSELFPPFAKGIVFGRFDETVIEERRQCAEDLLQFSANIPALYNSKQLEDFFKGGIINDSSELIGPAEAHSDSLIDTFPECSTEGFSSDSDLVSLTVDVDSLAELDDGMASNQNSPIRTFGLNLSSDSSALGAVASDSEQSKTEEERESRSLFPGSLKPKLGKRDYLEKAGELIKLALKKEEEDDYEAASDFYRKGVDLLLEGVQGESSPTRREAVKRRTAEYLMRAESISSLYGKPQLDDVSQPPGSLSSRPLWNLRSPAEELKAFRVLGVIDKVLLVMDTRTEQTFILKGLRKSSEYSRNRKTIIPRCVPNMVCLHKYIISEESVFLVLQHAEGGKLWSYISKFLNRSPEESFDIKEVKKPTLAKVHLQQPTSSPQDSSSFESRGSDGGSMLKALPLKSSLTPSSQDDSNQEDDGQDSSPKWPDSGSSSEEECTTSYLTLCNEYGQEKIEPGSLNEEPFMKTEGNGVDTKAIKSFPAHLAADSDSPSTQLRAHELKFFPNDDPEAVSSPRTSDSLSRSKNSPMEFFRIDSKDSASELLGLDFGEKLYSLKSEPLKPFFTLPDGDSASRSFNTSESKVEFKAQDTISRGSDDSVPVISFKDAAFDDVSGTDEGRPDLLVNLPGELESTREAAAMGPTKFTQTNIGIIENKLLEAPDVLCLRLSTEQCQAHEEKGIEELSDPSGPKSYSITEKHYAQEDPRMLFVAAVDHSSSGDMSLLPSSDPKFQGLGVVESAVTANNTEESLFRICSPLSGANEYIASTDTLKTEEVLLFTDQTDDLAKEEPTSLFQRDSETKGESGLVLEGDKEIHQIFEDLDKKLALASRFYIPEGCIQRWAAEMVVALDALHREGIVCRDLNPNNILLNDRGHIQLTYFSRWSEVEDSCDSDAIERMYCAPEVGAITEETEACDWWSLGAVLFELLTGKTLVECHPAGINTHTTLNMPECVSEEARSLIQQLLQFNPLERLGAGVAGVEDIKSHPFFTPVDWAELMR
UniProt O75818: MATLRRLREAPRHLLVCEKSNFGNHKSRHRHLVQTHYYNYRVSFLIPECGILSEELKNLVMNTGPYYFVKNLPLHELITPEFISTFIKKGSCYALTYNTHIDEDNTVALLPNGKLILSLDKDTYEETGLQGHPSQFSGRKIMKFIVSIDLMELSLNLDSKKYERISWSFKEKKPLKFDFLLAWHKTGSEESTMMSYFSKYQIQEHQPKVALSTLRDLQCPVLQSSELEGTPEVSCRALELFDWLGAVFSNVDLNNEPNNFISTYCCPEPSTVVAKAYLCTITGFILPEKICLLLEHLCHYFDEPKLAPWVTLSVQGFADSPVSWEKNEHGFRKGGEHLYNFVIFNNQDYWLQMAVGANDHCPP
UniProt P62070: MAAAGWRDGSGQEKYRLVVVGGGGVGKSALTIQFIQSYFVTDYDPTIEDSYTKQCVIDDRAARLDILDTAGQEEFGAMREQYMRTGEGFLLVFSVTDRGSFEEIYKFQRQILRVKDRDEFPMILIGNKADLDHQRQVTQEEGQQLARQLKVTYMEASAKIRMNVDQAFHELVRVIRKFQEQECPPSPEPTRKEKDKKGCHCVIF
UniProt Q96BH1: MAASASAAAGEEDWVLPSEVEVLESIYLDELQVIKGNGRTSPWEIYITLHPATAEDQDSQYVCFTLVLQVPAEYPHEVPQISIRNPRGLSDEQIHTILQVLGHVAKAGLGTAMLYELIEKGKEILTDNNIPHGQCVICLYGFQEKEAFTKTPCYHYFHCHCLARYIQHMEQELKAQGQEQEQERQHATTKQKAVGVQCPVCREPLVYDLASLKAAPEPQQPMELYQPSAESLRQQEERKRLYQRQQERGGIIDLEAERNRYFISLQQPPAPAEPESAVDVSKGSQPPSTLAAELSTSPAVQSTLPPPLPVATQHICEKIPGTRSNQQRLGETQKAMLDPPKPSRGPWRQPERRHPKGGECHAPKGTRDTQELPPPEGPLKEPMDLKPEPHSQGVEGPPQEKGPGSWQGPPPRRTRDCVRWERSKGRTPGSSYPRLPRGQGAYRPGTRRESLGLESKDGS
UniProt P35244: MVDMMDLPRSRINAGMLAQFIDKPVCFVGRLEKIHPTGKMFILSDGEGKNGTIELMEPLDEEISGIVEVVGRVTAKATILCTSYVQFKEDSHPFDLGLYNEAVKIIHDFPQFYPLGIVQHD
UniProt Q15349, whole entry, looked up: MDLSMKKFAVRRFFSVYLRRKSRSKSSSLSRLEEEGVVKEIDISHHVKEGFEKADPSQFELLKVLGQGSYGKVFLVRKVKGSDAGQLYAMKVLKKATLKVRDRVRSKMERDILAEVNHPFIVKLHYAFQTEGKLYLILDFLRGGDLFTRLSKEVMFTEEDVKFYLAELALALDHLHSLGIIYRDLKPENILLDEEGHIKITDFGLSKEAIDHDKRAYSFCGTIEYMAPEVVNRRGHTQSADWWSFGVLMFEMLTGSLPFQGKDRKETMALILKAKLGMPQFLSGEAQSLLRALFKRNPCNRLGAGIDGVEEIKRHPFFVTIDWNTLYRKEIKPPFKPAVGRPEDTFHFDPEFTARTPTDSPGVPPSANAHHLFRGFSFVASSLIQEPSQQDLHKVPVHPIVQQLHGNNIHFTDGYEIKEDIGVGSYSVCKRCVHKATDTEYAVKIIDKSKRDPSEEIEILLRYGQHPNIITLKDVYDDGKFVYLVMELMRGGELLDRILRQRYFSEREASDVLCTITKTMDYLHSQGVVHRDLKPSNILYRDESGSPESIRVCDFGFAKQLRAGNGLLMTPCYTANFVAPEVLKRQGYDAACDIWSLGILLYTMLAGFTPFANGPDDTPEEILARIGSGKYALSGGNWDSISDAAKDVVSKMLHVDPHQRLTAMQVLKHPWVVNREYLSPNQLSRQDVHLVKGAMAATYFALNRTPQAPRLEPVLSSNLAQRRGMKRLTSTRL
UniProt O75695: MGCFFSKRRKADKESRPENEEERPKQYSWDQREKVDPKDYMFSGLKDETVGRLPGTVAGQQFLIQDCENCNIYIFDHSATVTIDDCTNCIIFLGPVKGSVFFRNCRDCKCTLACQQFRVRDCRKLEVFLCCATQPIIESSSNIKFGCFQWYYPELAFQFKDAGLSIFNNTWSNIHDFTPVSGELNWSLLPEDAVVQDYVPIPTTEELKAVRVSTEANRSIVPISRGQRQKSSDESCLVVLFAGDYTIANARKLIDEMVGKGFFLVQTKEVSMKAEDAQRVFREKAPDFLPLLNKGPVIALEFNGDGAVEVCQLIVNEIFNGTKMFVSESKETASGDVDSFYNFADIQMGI
UniProt Q7L523, whole entry, looked up: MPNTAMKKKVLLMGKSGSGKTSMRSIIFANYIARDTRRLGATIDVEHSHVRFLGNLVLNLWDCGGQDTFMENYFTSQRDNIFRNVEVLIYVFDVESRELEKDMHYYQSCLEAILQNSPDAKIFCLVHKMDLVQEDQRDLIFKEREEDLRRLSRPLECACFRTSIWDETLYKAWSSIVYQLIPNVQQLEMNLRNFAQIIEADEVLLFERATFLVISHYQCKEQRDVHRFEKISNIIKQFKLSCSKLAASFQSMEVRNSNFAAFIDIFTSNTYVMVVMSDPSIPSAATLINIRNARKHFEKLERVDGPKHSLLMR
UniProt P23443: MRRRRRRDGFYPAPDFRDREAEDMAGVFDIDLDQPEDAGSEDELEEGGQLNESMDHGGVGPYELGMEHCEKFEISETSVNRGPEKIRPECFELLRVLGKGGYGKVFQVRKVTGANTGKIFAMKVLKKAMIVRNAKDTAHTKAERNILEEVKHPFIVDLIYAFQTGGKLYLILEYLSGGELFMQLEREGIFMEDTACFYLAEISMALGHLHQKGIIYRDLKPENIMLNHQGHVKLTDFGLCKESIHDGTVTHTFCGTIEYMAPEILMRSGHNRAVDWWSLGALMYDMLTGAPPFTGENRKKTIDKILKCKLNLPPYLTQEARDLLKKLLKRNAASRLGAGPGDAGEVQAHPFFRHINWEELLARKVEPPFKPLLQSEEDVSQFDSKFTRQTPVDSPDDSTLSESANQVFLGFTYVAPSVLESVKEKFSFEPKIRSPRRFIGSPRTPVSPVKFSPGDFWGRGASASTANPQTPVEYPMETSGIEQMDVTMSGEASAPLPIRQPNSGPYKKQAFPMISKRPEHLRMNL
UniProt P04844: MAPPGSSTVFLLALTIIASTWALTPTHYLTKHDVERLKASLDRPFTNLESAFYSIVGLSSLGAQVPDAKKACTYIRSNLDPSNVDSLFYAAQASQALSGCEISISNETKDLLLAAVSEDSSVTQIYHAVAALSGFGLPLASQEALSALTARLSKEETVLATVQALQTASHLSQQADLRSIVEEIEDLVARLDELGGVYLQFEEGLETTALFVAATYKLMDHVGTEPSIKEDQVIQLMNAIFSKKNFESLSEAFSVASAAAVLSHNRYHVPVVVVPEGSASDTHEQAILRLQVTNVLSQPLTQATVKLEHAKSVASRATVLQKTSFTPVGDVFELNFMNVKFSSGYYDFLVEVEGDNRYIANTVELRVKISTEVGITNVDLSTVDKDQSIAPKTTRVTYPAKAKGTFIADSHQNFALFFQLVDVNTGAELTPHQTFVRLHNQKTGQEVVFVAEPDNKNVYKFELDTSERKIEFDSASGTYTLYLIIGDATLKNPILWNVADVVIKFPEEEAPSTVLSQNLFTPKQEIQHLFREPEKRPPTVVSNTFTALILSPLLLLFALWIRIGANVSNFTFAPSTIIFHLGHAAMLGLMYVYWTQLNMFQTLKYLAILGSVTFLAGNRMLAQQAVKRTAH

What follows are targets tested with CS(=O)(=O)CCNCc1ccc(-c2ccc3ncnc(Nc4ccc(OCc5cccc(F)c5)c(Cl)c4)c3c2)o1 [lapatinib] (assay: log2 fold change, soluble protein after heating vs DMSO (PISA); higher = thermal stabilisation; K562 cells, 10 uM, 30 min; active = over 0.2 and 3.5 SD of the protein, either way, in both replicates (recomputed)).
Outline: (§1)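 K562 cells at 2×10^6 cells/mL were given 10 μM compound for 30 min. Aliquots then went through 3 min of heating across 48°C-58°C, were pooled, and were extracted in PBS with 0.5% NP-40 at 4°C, and the supernatant after 21,000xg for 90 min was quantified by TMTpro 16plex LC-MS/MS with channel sums equalised. Thermal stability relative to control samples, from duplicates, is given as log2 fold change.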
In the case of RNF7 (UniProt Q9UBF6), the log2 fold change is reported as inactive: 0.057.
RPS20 isoform 2 (UniProt P60866) was tested, and the log2 fold change was inactive: 0.108.
With RPS27A (UniProt P62979) the log2 fold change was inactive: -0.006.
For RP9 (UniProt Q8TA86), the log2 fold change was inactive: -0.01.
For RRBP1 (UniProt Q9P2E9), the log2 fold change was inactive: 0.185.
RPL39P5 (UniProt Q59GN2) was tested, and the log2 fold change was inactive: 0.216.
In the case of RPL36AL (UniProt Q969Q0), the log2 fold change is reported as inactive: 0.303.
In the case of RPS6KC1 (UniProt Q96S38), the log2 fold change is reported as inactive: 0.01.
In the case of RPL23 (UniProt P62829), the log2 fold change is reported as inactive: 0.099.
RPP40 (UniProt O75818) was tested, and the log2 fold change was inactive: 0.058.
For RRAS2 isoform 4 (UniProt P62070), the log2 fold change was inactive: 0.017.
With RPS23 (UniProt P62266) the log2 fold change was inactive: 0.173.
For RPL30 (UniProt P62888), the log2 fold change was inactive: 0.357.
For RPL11 (UniProt P62913), the log2 fold change was inactive: 0.266.
RNF25 (UniProt Q96BH1) was tested, and the log2 fold change was inactive: -0.017.
For RPL12 (UniProt P30050), the log2 fold change was inactive: 0.272.
In the case of RPS3 (UniProt P23396), the log2 fold change is reported as inactive: 0.053.
RPA3 (UniProt P35244) was tested, and the log2 fold change was inactive: 0.04.
RPS25 (UniProt P62851) was tested, and the log2 fold change was inactive: 0.038.
In the case of RPL27 (UniProt P61353), the log2 fold change is reported as inactive: 0.306.
With RPS6KA2 isoform 2 (UniProt Q15349) the log2 fold change was inactive: -0.011.
For RPL36A (UniProt P83881), the log2 fold change was inactive: 0.175.
With RP2 (UniProt O75695) the log2 fold change was inactive: 0.122.
In the case of RPS17 (UniProt P08708), the log2 fold change is reported as inactive: 0.045.
For RPS13 (UniProt P62277), the log2 fold change was inactive: 0.117.
For RRAGA (UniProt Q7L523), the log2 fold change was inactive: -0.126.
For RPL37 (UniProt P61927), the log2 fold change was inactive: -0.058.
With RPS14 (UniProt P62263) the log2 fold change was inactive: 0.132.
In the case of RPL36 (UniProt Q9Y3U8), the log2 fold change is reported as inactive: 0.407.
In the case of RPS29 (UniProt P62273), the log2 fold change is reported as inactive: 0.043.
RPS6KB1 (UniProt P23443) was tested, and the log2 fold change was inactive: -0.01.
With RPN2 (UniProt P04844) the log2 fold change was inactive: 0.073.
For RPL15 (UniProt P61313), the log2 fold change was inactive: 0.346.
RPL5 (UniProt P46777) was tested, and the log2 fold change was inactive: 0.129.
In the case of RPS15 (UniProt P62841), the log2 fold change is reported as inactive: -0.01.
RPL24 (UniProt P83731) was tested, and the log2 fold change was inactive: 0.195.
With RPS24 isoform 4 (UniProt P62847) the log2 fold change was inactive: 0.111.
In the case of RPS5 (UniProt P46782), the log2 fold change is reported as inactive: 0.081.
In the case of RPS2 (UniProt P15880), the log2 fold change is reported as inactive: 0.094.
RPS26 (UniProt P62854) was tested, and the log2 fold change was inactive: 0.218.

These targets were tested with CS(=O)(=O)N1CCN(Cc2cc3nc(-c4cccc5[nH]ncc45)nc(N4CCOCC4)c3s2)CC1 [pictilisib] in the same assay as above.
Outline: as §1
RNF7 (UniProt Q9UBF6) was tested, and the log2 fold change was inactive: -0.029.
RPS20 isoform 2 (UniProt P60866) was tested, and the log2 fold change was inactive: -0.006.
RPS27A (UniProt P62979) was tested, and the log2 fold change was inactive: -0.13.
For RP9 (UniProt Q8TA86), the log2 fold change was inactive: -0.069.
For RRBP1 (UniProt Q9P2E9), the log2 fold change was inactive: -0.201.
For RPL39P5 (UniProt Q59GN2), the log2 fold change was inactive: -0.104.
In the case of RPL36AL (UniProt Q969Q0), the log2 fold change is reported as inactive: -0.25.
RPS6KC1 (UniProt Q96S38) was tested, and the log2 fold change was inactive: -0.065.
For RPL23 (UniProt P62829), the log2 fold change was inactive: -0.127.
With RPP40 (UniProt O75818) the log2 fold change was inactive: 0.022.
RRAS2 isoform 4 (UniProt P62070) was tested, and the log2 fold change was inactive: 0.05.
With RPS23 (UniProt P62266) the log2 fold change was inactive: -0.078.
In the case of RPL30 (UniProt P62888), the log2 fold change is reported as inactive: -0.261.
RPL11 (UniProt P62913) was tested, and the log2 fold change was inactive: -0.206.
For RNF25 (UniProt Q96BH1), the log2 fold change was inactive: 0.064.
In the case of RPL12 (UniProt P30050), the log2 fold change is reported as inactive: -0.232.
In the case of RPS3 (UniProt P23396), the log2 fold change is reported as inactive: -0.059.
RPA3 (UniProt P35244) was tested, and the log2 fold change was inactive: 0.046.
For RPS25 (UniProt P62851), the log2 fold change was inactive: -0.08.
RPL27 (UniProt P61353) was tested, and the log2 fold change was inactive: -0.189.
RPS6KA2 isoform 2 (UniProt Q15349) was tested, and the log2 fold change was inactive: -0.106.
For RPL36A (UniProt P83881), the log2 fold change was inactive: -0.284.
RP2 (UniProt O75695) was tested, and the log2 fold change was inactive: 0.022.
In the case of RPS17 (UniProt P08708), the log2 fold change is reported as inactive: -0.07.
For RPS13 (UniProt P62277), the log2 fold change was inactive: -0.226.
With RRAGA (UniProt Q7L523) the log2 fold change was inactive: -0.158.
With RPL37 (UniProt P61927) the log2 fold change was inactive: -0.205.
In the case of RPS14 (UniProt P62263), the log2 fold change is reported as inactive: -0.321.
RPL36 (UniProt Q9Y3U8) was tested, and the log2 fold change was inactive: -0.156.
For RPS29 (UniProt P62273), the log2 fold change was inactive: -0.147.
In the case of RPS6KB1 (UniProt P23443), the log2 fold change is reported as inactive: 0.013.
RPN2 (UniProt P04844) was tested, and the log2 fold change was inactive: -0.007.
For RPL15 (UniProt P61313), the log2 fold change was inactive: -0.221.
With RPL5 (UniProt P46777) the log2 fold change was inactive: -0.062.
With RPS15 (UniProt P62841) the log2 fold change was inactive: -0.054.
With RPL24 (UniProt P83731) the log2 fold change was inactive: -0.202.
RPS24 isoform 4 (UniProt P62847) was tested, and the log2 fold change was inactive: -0.128.
For RPS5 (UniProt P46782), the log2 fold change was inactive: -0.099.
In the case of RPS2 (UniProt P15880), the log2 fold change is reported as inactive: -0.143.
With RPS26 (UniProt P62854) the log2 fold change was inactive: -0.141.
